Results deposited as PubChem BioAssay AID504808 (Drosophila RNAi Screening Center, 2011)
The deposit covers about 21,000 reagents; this is a random part of those with a known target gene and a result. In the full data, 18 (0.084%) were called active. 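Raw counts without plate normalisation, one of two replicates; the ratio scores behind the calls were not deposited.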 No sequences are given here. Not stated in the record: the amount of reagent, the time to read-out.

Aim: 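Fly genes required to hold E2F transcription in check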 (primary screen)
Cells: Drosophila S2 cells
Reagent: long dsRNA against Drosophila genes
Detection: 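Dual luciferase plate measurements; E2F-specific signal taken as firefly over Renilla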
Direction: E2F firefly: higher = more E2F reporter activity; Renilla normaliser: higher = more normaliser reporter signal
Rule for the call: 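Called active if the normalised E2F reporter went up by over 50%; the cutoff is arbitrary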

| Gene | DRSC id | E2F firefly, rep 1 | Renilla normaliser, rep 1 | activity call |
| --- | --- | --- | --- | --- |
| CG16868 | DRSC06633 | 71382 | 3568 | inactive |
| clos | DRSC06240 | 1.51e5 | 4787 | inactive |
| clos | DRSC06241 | 1.43e5 | 5253 | inactive |
| clos | DRSC06778 | 1.40e5 | 4989 | inactive |
| Swt1 | DRSC20028 | 1.47e5 | 5364 | inactive |
| inaF-B | DRSC18903 | 85831 | 3408 | inactive |
| O-fut2 | DRSC18608 | 1969 | 916 | inactive |
| Sld5 | DRSC14892 | 1.29e5 | 6622 | inactive |
| CG7220 | DRSC05235 | 1.36e5 | 5374 | inactive |
| CG7220 | DRSC07018 | 1.55e5 | 5735 | inactive |
| CG42542 | DRSC15549 | 71676 | 3271 | inactive |

5 entries already listed, arranged by “Renilla normaliser, rep 1”, lowest first:
| Gene | DRSC id | E2F firefly, rep 1 | Renilla normaliser, rep 1 | activity call |
| --- | --- | --- | --- | --- |
| O-fut2 | DRSC18608 | 1969 | 916 | inactive |
| CG42542 | DRSC15549 | 71676 | 3271 | inactive |
| CG7220 | DRSC05235 | 1.36e5 | 5374 | inactive |
| CG7220 | DRSC07018 | 1.55e5 | 5735 | inactive |
| Sld5 | DRSC14892 | 1.29e5 | 6622 | inactive |

Next results:
| Gene | DRSC id | E2F firefly, rep 1 | Renilla normaliser, rep 1 | activity call |
| --- | --- | --- | --- | --- |
| H15 | DRSC03339 | 1.67e5 | 5574 | inactive |
| CG42789 | DRSC13793 | 53513 | 3296 | inactive |
| CG14357 | DRSC14820 | 1.01e5 | 5070 | inactive |
| atk | DRSC11418 | 81329 | 4157 | inactive |
| atk | DRSC11769 | 1.27e5 | 6651 | inactive |
| dmrt99B | DRSC15045 | 49304 | 3433 | inactive |
| CG14013 | DRSC02344 | 1.44e5 | 5412 | inactive |
| CG33271 | DRSC10583 | 94679 | 5948 | inactive |
| CG4935 | DRSC01924 | 96629 | 4136 | inactive |
| CG3517 | DRSC15492 | 1.55e5 | 7197 | inactive |
| Him | DRSC19638 | 1.46e5 | 6116 | inactive |
| TrpRS-m | DRSC10848 | 70034 | 3961 | inactive |
| CG1620 | DRSC06603 | 82578 | 3230 | inactive |
| thoc7 | DRSC08512 | 71467 | 3478 | inactive |
| SmB | DRSC03437 | 55886 | 3732 | inactive |
| CG7133 | DRSC11798 | 69672 | 3722 | inactive |
| Nlg1 | DRSC12485 | 74362 | 3670 | inactive |
| Nlg1 | DRSC12532 | 1.34e5 | 6111 | inactive |
| Nlg1 | DRSC12533 | 1.27e5 | 5929 | inactive |
| Nlg1 | DRSC12539 | 1.35e5 | 7195 | inactive |
| MICU1 | DRSC02752 | 87042 | 3897 | inactive |
| Bre1 | DRSC09742 | 77125 | 3245 | inactive |
| CG18530 | DRSC15341 | 1.50e5 | 7565 | inactive |
